# Data reported in PubChem BioAssay AID504648 (National Center for Advancing Translational Sciences (NCATS), 2011).
# About 610 (0.16%) of roughly 390,000 compounds were called active. The inconclusive results got no clear call from the source; some entries with a clear call stand among them for comparison. Calls come from the whole dose curve; as a rule, active = well fitted inhibition curve with a large enough effect; inconclusive = small, poorly fitted or top-dose-only effect, or effect the other way, or another doubt; inactive = no such curve, though single readings can be large or run the other way. Where the call is inconclusive, the potency comes from a doubtful curve fit.
# Test: Nrf2 qHTS screen for inhibitors: counterscreen for cytotoxicity
# Settings: A549 ARE-Fluc cells, CellTiter-Fluor viability, 18-24 h; series mostly up to 46 µM
# In short: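 A549 ARE_Fluc cells in 5% FBS OPTI-MEM were exposed to compounds in concentration-response for 18-24 h at 37 deg C. Viability was read by CellTiter-Fluor fluorescence (Ex 405/Em 525) after 30 min, before the luciferase read.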
# Potency is the fitted concentration of half-maximal effect.
row,Compound,Potency
1,CCN1/C(=C/c2ccc3ccc(C)cc3[n+]2CC)Sc2ccccc21,"inconclusive: 18.4 µM [falling, single point]"
2,CCc1nc(C)cn1S(=O)(=O)c1cc(Br)ccc1OC,"inconclusive: 29.1 µM [falling, single point]"
3,CN(C)c1ccc(CN(CC2CCCO2)C(=O)COc2ccc(Cl)cc2)cc1 (configuration not stated),"inconclusive: 32.6 µM [falling, partial curve, poor fit]"
4,Cc1ccc(O)c(-c2cc(C(=O)Nc3c(C)n(C)n(-c4ccccc4)c3=O)[nH]n2)c1,"inconclusive: 25.9 µM [falling, partial curve, poor fit]"
5,COc1ccc(CCNC(=O)C(NS(=O)(=O)c2cccc3nsnc23)C(C)C)cc1OC (configuration not stated),inactive
6,COc1ccccc1CN(C)C(=O)c1ccc(S(=O)(=O)Nc2c(C)n(C)n(-c3ccccc3)c2=O)cc1,inactive
7,O=C(COC(=O)COc1ccc(Cl)cc1Br)NCc1cccs1,"inconclusive: 6.51 µM [falling, partial curve, poor fit]"
8,CC1CCc2nc(NC(=O)CCSc3ccccc3)sc2C1 (configuration not stated),"inconclusive: 0.146 µM [activator, full curve]"
9,Cc1cccc(C(CC(=O)NCC2(c3ccccc3)CCCC2)c2ccccc2)c1O (configuration not stated),"inconclusive: 20.6 µM [falling, partial curve, poor fit]"
10,CC1CCCN(S(=O)(=O)c2ccc(C(=O)Nc3nnc(C4CC4)o3)cc2)C1 (configuration not stated),"inconclusive: 10.3 µM [falling, partial curve, poor fit]"
11,Cc1ccc(CNC(=O)c2cc3c(=O)n4ccccc4nc3n(CC3CCCO3)c2=N)cc1 (configuration not stated),"inconclusive: 23.1 µM [activator, partial curve, poor fit]"
12,CCN(CC)c1nc2ccccc2c(N)c1-c1ccccc1,"inconclusive: 16.4 µM [falling, single point]"
13,CC(=O)N1CCN(c2ccc(NC(=O)c3ccc(C)cc3)cc2)CC1,inactive
14,CC1CCN(S(=O)(=O)c2ccc3nc(-c4ccccn4)cc(C(=O)NCCN(C)Cc4ccccc4)c3c2)CC1,inactive
15,CCN(CC)CCn1c(=N)n(CC(O)COc2ccccc2C)c2ccccc21 (configuration not stated),"inconclusive: 29.1 µM [falling, single point]"
16,Cc1ccc2nc(SCC(=O)Nc3cc(C(F)(F)F)ccc3N3CCOCC3)[nH]c2c1,"inconclusive: 4.11 µM [falling, partial curve, poor fit]"
17,CCSC1=C(C#N)C(c2cccs2)C(C(=O)OC)=C(C)N1 (configuration not stated),"inconclusive: 32.6 µM [falling, partial curve, poor fit]"
18,CCn1c(CSc2nnc(-c3ccc4c(c3)OCO4)o2)nc2cc(S(=O)(=O)N(C)C)ccc21,inactive
19,CC(C)CCn1c(SCc2ccc(F)cc2Cl)nc2ccsc2c1=O,inactive
20,Cc1ccc(C)c(NS(=O)(=O)c2ccc3c(c2)Cc2cc(S(=O)(=O)Nc4cc(C)ccc4C)ccc2-3)c1,inactive
21,CC(C)c1ccc(C2c3c(-c4ccccc4O)n[nH]c3C(=O)N2CCc2ccccc2)cc1 (configuration not stated),"inconclusive: 29.1 µM [falling, partial curve, poor fit]"
22,CCN(CC)CCCNC(=O)C1c2ccccc2C(=O)N(C)C1c1ccc(OC)cc1 (configuration not stated),"inconclusive: 23.1 µM [activator, single point]"
23,CCS(=O)(=O)N1CCC(C(=O)NCc2cccs2)CC1,"inconclusive: 32.6 µM [activator, partial curve, poor fit]"

row,Compound,Potency
1,Cc1ccc(CSc2nc(=O)c3c(C)cc(C)nc3n2C2CC2)cc1,inactive
2,COc1ccc(/C=C2\SC(=S)N(C(C(=O)O)c3ccccc3)C2=O)c(OC)c1 (configuration not stated),"inconclusive: 32.6 µM [falling, partial curve, poor fit]"
3,CC(Sc1ncc(S(=O)(=O)c2ccc(C(C)C)cc2)c(N)n1)C(=O)Nc1ccccc1 (configuration not stated),"inconclusive: 25.9 µM [falling, partial curve, poor fit]"
4,CCOC(=O)c1c(NC(NC(=O)C(C)C)C(Cl)(Cl)Cl)sc2c1CCC2 (configuration not stated),"inconclusive: 20.6 µM [falling, partial curve, poor fit]"
5,CC(C)c1ccc(N=c2c([N+](=O)[O-])nn(-c3ccc4c(c3)OCCO4)n2O)cc1,"inconclusive: 29.1 µM [falling, partial curve, poor fit]"
6,O=C(NC1CC2CCC(C1)N2Cc1ccccc1)c1ccccc1Br (configuration not stated),"inconclusive: 18.4 µM [falling, partial curve, poor fit]"
7,CCOc1ccccc1NC(=O)C1(S(=O)(=O)c2ccc(Cl)cc2)CC1,inactive
8,CC(NC(=O)c1cc2c(=O)n3ccccc3nc2n(CC2CCCO2)c1=N)c1ccccc1 (configuration not stated),"inconclusive: 20.6 µM [activator, partial curve, poor fit]"
9,O=C(CNc1cccc2ccccc12)N/N=C/c1ccc([N+](=O)[O-])o1,"inconclusive: 18.4 µM [falling, single point]"
10,Cc1cccc(-n2nc([N+](=O)[O-])c(=NCc3cccnc3)n2O)c1,"inconclusive: 23.1 µM [falling, single point]"
11,COc1ccccc1/C=C/CN1CCC(Oc2ccc(C(=O)N3CCCC3)cc2)CC1,"inconclusive: 32.6 µM [falling, single point]"
12,O=C(c1cccc(S(=O)(=O)Nc2ccc(F)cc2)c1)N1CCC1,inactive
13,CCN(CC)CCOC(=O)c1ccc(NC(=O)c2nn(-c3ccc(C)cc3)c(=O)c3c2c2ccccc2n3C)cc1,inactive
14,CSc1ccccc1NC(=S)Nc1ccccc1C(F)(F)F,"inconclusive: 29.1 µM [activator, partial curve, poor fit]"
15,COc1ccc2oc(C(=O)OCC(=O)N3CCCCC3C)c(C)c2c1 (configuration not stated),inactive
16,COc1ccccc1NC(=O)c1sc2nc(Cc3ccccc3)cc(C(F)(F)F)c2c1N,"inconclusive: 13 µM [activator, partial curve]"
17,CCCn1nc(C(=O)NNC(=O)CSC(C)C(=O)Nc2cc(C)on2)c2ccccc2c1=O (configuration not stated),inactive
18,CCOc1ccc(C(=O)Nc2ccc(Cc3ccncc3)cc2)cc1Br,"inconclusive: 18.4 µM [falling, partial curve, poor fit]"
19,Cc1nnc(N2CCCCC2)c2ccccc12,inactive
20,COCCNC(=O)c1cccc2c1C(=O)c1ccc(N3CCOCC3)cc1S2(=O)=O,"inconclusive: 16.4 µM [falling, partial curve, poor fit]"
21,CC(C(=O)N=c1sc2ccccc2n1C)N1C(=O)C2CC=CCC2C1=O (configuration not stated),"inconclusive: 0.651 µM [activator, full curve, poor fit]"
22,CCOC(=O)c1ccc(NC(=O)c2nc(S(=O)(=O)Cc3ccccc3)ncc2Cl)cc1,"inconclusive: 29.1 µM [falling, single point]"
23,COCCCNS(=O)(=O)c1ccc2[nH]c3c(c2c1)CCCCC3,"inconclusive: 29.1 µM [activator, single point]"

row,Compound,Potency
1,CCCCN1C(=O)c2ccc(C(=O)Nc3cccnc3)cc2C1=O,inactive
2,Cc1nn(-c2ccccc2)nc1C(=O)Nc1nnc(C(F)(F)F)s1,inactive
3,CCCCNC(=O)c1sc(=S)n(-c2ccccc2OC)c1N,inactive
4,COc1cc2c(cc1NC(=O)CN1C(=O)NC3(CCc4ccccc43)C1=O)oc1ccccc12 (configuration not stated),"inconclusive: 29.1 µM [falling, single point]"
5,CCSc1nnc([C@H](Cc2ccccc2)NC(=O)OC(C)(C)C)o1,inactive
6,COc1ccc(-c2[nH]c(-c3ccc(OC)c(OC)c3)nc2SCC(=O)Nc2ccccc2)cc1,"inconclusive: 29.1 µM [falling, single point]"
7,CC(C)C(=O)N(Cc1ccc(F)cc1)Cc1nc2ccccc2c(=O)[nH]1,inactive
8,CCCCn1nc(C(=O)Nc2ccc(-n3cnnn3)cc2)c2ccccc2c1=O,inactive
9,CCS(=O)(=O)c1ccc(O)c(NC(=O)/C=C/c2ccccc2)c1,inactive
10,C=C(C)COc1ccc(-c2[nH]ncc2Oc2ccccc2OC)c(O)c1,"inconclusive: 18.4 µM [falling, single point]"
11,O=C(Nc1ccc(S(=O)(=O)NCCc2ccccc2)cc1)c1ccco1,inactive
12,CCOC(=O)c1ccc2c(c1)n(CC)c(/C=C/N(C)c1ccccc1)[n+]2CC,"inconclusive: 23.1 µM [falling, partial curve]"
13,N#Cc1c(-c2ccccc2F)cc(C2CC2)nc1SCC(=O)c1cccs1,"inconclusive: 20.6 µM [activator, partial curve, poor fit]"
14,O=C1COc2ccc(C(=O)COC(=O)/C=C/c3ccco3)cc2N1,inactive
15,N=c1ccn(Cc2cccc(F)c2)cc1,"inconclusive: 5.17 µM [falling, partial curve, poor fit]"
16,O=c1cc2oc3cc(O)c(O)cc3c(-c3ccccc3[N+](=O)[O-])c-2cc1O,active: 5.17 µM
17,CC1CN(c2nc3ccccc3nc2SCC(=O)Nc2cccc(C(F)(F)F)c2)CC(C)O1 (configuration not stated),"inconclusive: 18.4 µM [falling, partial curve, poor fit]"
18,CCCOc1c(Br)cc(/C=N/O)cc1OC,"inconclusive: 2.59 µM [activator, partial curve, poor fit]"
19,O=C(NC1CCCCC1)c1sc(=S)n2c1[nH]c(=O)c1ccccc12,"inconclusive: 32.6 µM [falling, single point]"
20,CCN(c1ccccc1)S(=O)(=O)c1nnc(NC(=O)C(C)Oc2ccccc2)s1 (configuration not stated),inactive
21,O=C(COc1ccc(S(=O)(=O)N2CCCC2)cc1Cl)N1CCN(c2ccccc2)CC1,"inconclusive: 3.26 µM [activator, partial curve, poor fit]"

# Another view of three compounds above.
row | Compound | Potency
14 | O=C1COc2ccc(C(=O)COC(=O)/C=C/c3ccco3)cc2N1 | inactive
15 | N=c1ccn(Cc2cccc(F)c2)cc1 | inconclusive: 5.17 µM [falling, partial curve, poor fit]
16 | O=c1cc2oc3cc(O)c(O)cc3c(-c3ccccc3[N+](=O)[O-])c-2cc1O | active: 5.17 µM
